PubChem BioAssay AID1259254 – NCATS, 2017

Screen: 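Genome-wide screen for genes that prevent DNA re-replication in cancer cells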 (primary screen)
Cells: human HCT116 colorectal cancer cells
Knock-down reagent: single siRNA against human genes
Duration: 3 days
Read-out: 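Imaged Hoechst DNA stain sorts each cell into a cycle phase by DNA amount; per plate, G2 fraction set to 0% for non-targeting and 100% for GMNN siRNA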
Direction: G2 robust z-score and G2 cells, % of GMNN control: higher = more G2 cells, more excess DNA replication
Hit rule: 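Active siRNAs have a G2 robust z of 5 or more median absolute deviations over the median, which in these data means about 38% or higher of GMNN control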
This is one part, drawn at random, of about 59,000 reagents tested. Of all reagents, about 1,550 (2.6%) were called active. 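G2 share is only a proxy for re-replication; each gene was hit by three separate siRNAs, and active genes were retested.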 Reagents against one gene are numbered here. Further read-outs or replicates are left out here. Not stated in the record: the amount of reagent.

no.	target gene	reagent	G2 robust z-score	G2 cells, % of GMNN control	Call
1	EXOSC9	1	1.09	10.6	inactive
2	EXOSC9	2	7.13	53.1	active
3	EXOSC9	3	1.21	11.5	inactive
4	RNASE7	1	0.625	7.36	inactive
5	RNASE7	2	0.624	7.36	inactive
6	RNASE7	3	4.65	35.6	inactive
7	LUC7L3	1	-1.05	-4.43	inactive
8	LUC7L3	2	-0.3	0.853	inactive
9	LUC7L3	3	0.675	7.72	inactive
10	CTCFL	1	1.73	15.1	inactive
11	CTCFL	2	-0.494	-0.506	inactive
12	CTCFL	3	2.37	19.6	inactive
13	CPE	1	1.48	13.4	inactive
14	CPE	2	-0.698	-1.95	inactive
15	CPE	3	-0.294	0.901	inactive
16	SH2D6	1	1.18	11.3	inactive
17	SH2D6	2	4.23	32.8	inactive
18	SH2D6	3	0.613	7.28	inactive
19	PCDHA6	1	-0.711	-2.03	inactive
20	PCDHA6	2	-0.737	-2.22	inactive
21	PCDHA6	3	3.35	26.6	inactive
22	LINC00693	1	0.871	9.1	inactive
23	LINC00693	2	0.556	6.88	inactive
24	LINC00693	3	-0.604	-1.28	inactive
25	SLC39A13	1	-0.612	-1.34	inactive
26	SLC39A13	2	0.234	4.62	inactive
27	SLC39A13	3	0.661	7.62	inactive
28	SH2D3A	1	0.64	7.47	inactive
29	SH2D3A	2	0.194	4.33	inactive
30	SH2D3A	3	-0.729	-2.16	inactive
31	CD1B	1	2.23	18.7	inactive
32	CD1B	2	-0.149	1.92	inactive
33	CD1B	3	-0.697	-1.94	inactive
34	DNM1P31	1	-0.0809	2.4	inactive
35	DNM1P31	2	-0.617	-1.37	inactive
36	DNM1P31	3	0.377	5.62	inactive
37	SLC41A2	1	1.95	16.7	inactive
38	SLC41A2	2	1.33	12.3	inactive
39	SLC41A2	3	0.137	3.93	inactive
40	KIAA1210	1	-0.871	-3.16	inactive
41	KIAA1210	2	0.834	8.84	inactive
42	KIAA1210	3	0.206	4.41	inactive
43	RWDD1	1	-0.65	-1.61	inactive
44	RWDD1	2	-0.179	1.71	inactive
45	RWDD1	3	-0.678	-1.8	inactive
46	NUDT18	1	0.332	5.31	inactive
47	NUDT18	2	0.176	4.2	inactive
48	NUDT18	3	-0.699	-1.95	inactive
49	RBM28	1	0.95	9.65	inactive
50	RBM28	2	-0.955	-3.75	inactive
51	RBM28	3	-0.399	0.161	inactive
52	ARRDC2	1	1.63	14.4	inactive
53	ARRDC2	2	1.05	10.4	inactive
54	ARRDC2	3	5.31	40.3	active
55	LOC729254	1	-0.72	-2.1	inactive
56	LOC729254	2	-0.667	-1.73	inactive
57	LOC729254	3	-0.526	-0.73	inactive
58	TREML2	1	2.01	17.1	inactive
59	TREML2	2	0.0374	3.23	inactive
60	TREML2	3	-1.32	-6.34	inactive
61	RPL21P68	1	4.89	37.4	inactive
62	RPL21P68	2	0.991	9.94	inactive
63	RPL21P68	3	1.47	13.3	inactive
64	C16orf90	1	0.614	7.29	inactive
65	C16orf90	2	-1.28	-6.02	inactive
66	C16orf90	3	-0.742	-2.25	inactive
67	CCL25	1	-0.948	-3.71	inactive
68	CCL25	2	-0.602	-1.27	inactive
69	CCL25	3	-0.13	2.06	inactive
70	CORO2B	1	-0.314	0.757	inactive
71	CORO2B	2	-0.61	-1.33	inactive
72	CORO2B	3	0.0976	3.65	inactive
73	SH3YL1	1	3.65	28.7	inactive
74	SH3YL1	2	0.811	8.67	inactive
75	SH3YL1	3	0.335	5.32	inactive
76	SPON1	1	-1.22	-5.64	inactive
77	SPON1	2	-0.0352	2.72	inactive
78	SPON1	3	-0.448	-0.184	inactive
79	EGLN2	1	-0.475	-0.374	inactive
80	EGLN2	2	0.0284	3.17	inactive
81	EGLN2	3	0.796	8.57	inactive
82	LIPN	1	-0.14	1.98	inactive
83	LIPN	2	-0.792	-2.61	inactive
84	LIPN	3	0.456	6.18	inactive
85	INPP5B	1	-0.601	-1.26	inactive
86	INPP5B	2	-0.633	-1.49	inactive
87	INPP5B	3	-0.169	1.78	inactive

Entries listed above with an active call:
target gene	reagent	G2 robust z-score	G2 cells, % of GMNN control	Call
EXOSC9	2	7.13	53.1	active
ARRDC2	3	5.31	40.3	active
